Experimental data from article PMC6647430.
These are yes or no findings as the source states them, for the method shown. In cells and extracts the contact can be indirect. Some binding calls cover weakened binding; strength is not graded here.

Protein sequences, listed by entry. Tags and fused reporters are not part of them.
UniProt Q60987: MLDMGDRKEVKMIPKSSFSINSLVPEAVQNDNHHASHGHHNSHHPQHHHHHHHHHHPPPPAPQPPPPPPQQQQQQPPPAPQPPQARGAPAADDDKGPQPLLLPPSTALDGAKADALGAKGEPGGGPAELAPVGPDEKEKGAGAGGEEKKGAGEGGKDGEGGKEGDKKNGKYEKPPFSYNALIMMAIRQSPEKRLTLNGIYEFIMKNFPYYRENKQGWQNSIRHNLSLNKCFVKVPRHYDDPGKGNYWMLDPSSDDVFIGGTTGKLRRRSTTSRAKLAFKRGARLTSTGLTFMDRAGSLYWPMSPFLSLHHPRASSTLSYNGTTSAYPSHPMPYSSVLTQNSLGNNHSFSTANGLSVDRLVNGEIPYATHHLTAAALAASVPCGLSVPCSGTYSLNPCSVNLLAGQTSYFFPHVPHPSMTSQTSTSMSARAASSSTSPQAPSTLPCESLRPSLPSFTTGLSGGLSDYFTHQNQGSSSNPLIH

Experiments:
[1] = biological target: FOXG1-HA (Forkhead box G1, HA-tagged) (UniProt Q60987); test: co-IP; HA- or Au1-tagged FOXG1 overexpressed in N2a cells; IP by the tag (anti-HA or anti-Au1), immunoblot with anti-DDX5, anti-DROSHA, anti-DGCR8; mock: FOXG1 with the other tag, untransfected or empty vector
[2] = biological target: FOXG1-Au1 (Forkhead box G1, Au1-tagged) (UniProt Q60987); test: co-IP; N2a cells expressing FOXG1-Au1 (FOXG1-HA as control) fractionated into cytoplasmic, nucleoplasmic and chromatin fractions; Au1-IP from the fractions, immunoblot with anti-Au1, anti-DDX5, anti-DROSHA, anti-DGCR8
[3] = biological target: endogenous FOXG1 (Forkhead box G1) (mouse (endogenous in adult mouse hippocampus and E13.5 cortical tissue)) (UniProt Q60987); test: co-IP; protein extracts of adult mouse hippocampus; IP of endogenous FOXG1 (anti-FOXG1) and of DDX5 (anti-DDX5), immunoblot with anti-FOXG1, anti-DDX5, anti-DROSHA, anti-DGCR8

Measured: binding

B1: DiGeorge syndrome critical region gene 8 (DGCR8) (protein, UniProt Q9EQM6 1-773)
chain: METYESPSPLPREPAGEAMMENRACPFQVLPHEQSPPPPLQTSSDAEVMDVGSGGDGQSEPPADDPFNFYGASLLSKGSFSKGRLLIDPNCSGHSPRTARHAPAVRKFSPDLKLLKDVKISVSFTESCRSKDRKVLYTGVERSTRPECGQLLSPVSGDVHACPFGGSVGNGVGLGGESADKKDEENELDQEKRVEYAVLDELEDFTDNLELDEEGTGGFTAKAIVQRDRVDEEALNFSYEDDFDNDVDALLEEGLCAPKKRRMEEKYGGDSDHPSDGETSVQPMMTKIKTVLKSRGRPPTEPLPDGWIMTFHNSGVPVYLHRESRVVTWSRPYFLGTGSIRKHDPPLSSIPCLHYKKMKDNEEREQNCDLAPSGEVSPVKPLGRSAELDFPLEEPDSMGGDSGSMDEKDPLGAEAAAGALGQVKAKVEVCKDESVDLEEFRNYLEKRFDFEQVTVKKFRTWAERRQFNREMKRKQAESERPILPANQKLITLSVQDAPTKKEFVINPNGKSEVCILHEYMQRVLKVRPVYNFFECENPSEPFGASVTIDGVTYGSGTASSKKLAKNKAARATLEILIPDFVKQTSEEKPKDSEELEYFNHISIEDSRVYELTSKAGLLSPYQILHECLKRNHGMGDTSIKFEVVPGKNQKSEYVMACGKHTVRGWCKNKRVGKQLASQKILQLLHPHVKNWGSLLRMYGRESSKMVKQETSDKSVIELQQYAKKNRPNLHILSKLQEEMKRLAAEREETRKKPKMSIVASAQPGGEPLCTVDV
binds: all assays above
